Data as given in PubChem BioAssay AID720505 (Drosophila RNAi Screening Center, 2013)

- Aim: 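Knock-downs that reduce calcium influx once internal stores are emptied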 (primary screen)
- Cell system: Drosophila S2R+ cells
- Reagent: long dsRNA against Drosophila genes
- Conditions: thapsigargin (2 µM) in calcium-free buffer to empty internal stores, then 2 mM calcium added back
- Measured: 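Fluo-4 signal in 384-well plates read on a FLIPR after thapsigargin (2 µM, calcium-free) store depletion and 2 mM calcium add-back; unnormalised mean endpoint per well; screen run twice, selected wells retested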
- Reading the numbers: calcium signal and retest calcium signal: higher = more calcium entry after store depletion
- Rule for the call: 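Knock-downs counted as hits when calcium entry dropped relative to STIM1 positive and Rho1 negative controls present on each plate; roughly 1500 genes called, with reductions of differing size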
- Meaning of the calls: active = called as lowering calcium entry; inactive = not called
The deposit covers about 20,000 reagents; shown is an unselected part of those that have a named target and a result. Of all reagents, about 2,100 (10%) were called active. 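Raw plate signals without normalisation; calls rest on control-based scores that were not deposited; replicate 2 separates called from uncalled poorly.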 A plus sign joins genes that one reagent is predicted to hit. Reagent sequences are not shown. The record does not give: the amount of reagent, the time to read-out.

target gene,DRSC id,"calcium signal, replicate 1","calcium signal, replicate 2","retest calcium signal, replicate 1","retest calcium signal, replicate 2",outcome
Swim (Secreted Wg-interacting molecule),DRSC04334,108,89.8,,,inactive
CG17982,DRSC18143,180,115,,,inactive
CG13384,DRSC02258,107,276,,,inactive
fz4 (frizzled 4),DRSC18780,270,146,,,inactive
CG12075,DRSC17801,192,163,,,inactive
CG15539,DRSC15075,140,139,,,inactive
CG8191,DRSC20091,117,143,,,inactive
CG30196,DRSC04156,79.4,149,,,inactive
CG10405,DRSC14238,98.1,144,,,inactive
CG13737,DRSC10064,87.7,84,,,inactive
CR11235 (pseudo),DRSC20480,189,99,,,inactive
Prx1 (Peroxiredoxin 1),DRSC10741,85.9,141,,,inactive
CG2182,DRSC12308,119,147,,,inactive
asl (asterless),DRSC12319,149,178,,,inactive
CG9776,DRSC12127,85,128,,,inactive
CG32813,DRSC17948,90.8,109,,,inactive
CG15414,DRSC00429,157,86.4,,,inactive
CG15414,DRSC22353,128,254,,,inactive
alc (alicorn),DRSC07062,190,131,,,inactive
alc (alicorn),DRSC21464,99.6,106,,,inactive
alc (alicorn),DRSC23316,130,153,,,inactive
Atg7 (Autophagy-related 7),DRSC05741,83.2,113,,,inactive
Atg7 (Autophagy-related 7),DRSC06937,168,191,,,inactive
sob,DRSC00838,185,94.2,,,inactive
Cad96Ca (Cadherin 96Ca),DRSC14220,206,165,,,inactive
Cad96Ca (Cadherin 96Ca),DRSC16693,246,191,,,inactive
E(bx) (Enhancer of bithorax),DRSC08172,113,145,,,inactive
E(bx) (Enhancer of bithorax),DRSC08509,83.5,83.4,,,inactive
E(bx) (Enhancer of bithorax),DRSC08583,75.5,80.1,,,active
CG15422,DRSC00436,69.5,191,,,active
CG9029,DRSC03129,218,98.7,,,inactive
Atxn7 (Ataxin 7),DRSC00726,66.3,151,,,active
Atxn7 (Ataxin 7),DRSC23138,102,140,,,inactive
Sf3b5 (Splicing factor 3b subunit 5),DRSC14460,26.5,102,,,active

The list goes on (2 carried over from the part before).
target gene,DRSC id,"calcium signal, replicate 1","calcium signal, replicate 2","retest calcium signal, replicate 1","retest calcium signal, replicate 2",outcome
Atxn7 (Ataxin 7),DRSC23138,102,140,,,inactive
Sf3b5 (Splicing factor 3b subunit 5),DRSC14460,26.5,102,,,active
CG14451,DRSC11708,81,156,,,inactive
snu (snustorr),DRSC16589,110,190,,,inactive
tmod (tropomodulin),DRSC14314,136,128,,,inactive
tmod (tropomodulin),DRSC15076,168,186,,,inactive
tmod (tropomodulin),DRSC17062,99,109,,,inactive
Ank2 (Ankyrin 2),DRSC09666,91.7,87.7,,,inactive
Ank2 (Ankyrin 2),DRSC10338,120,84.3,,,inactive
Ank2 (Ankyrin 2),DRSC11278,94.5,84.3,,,inactive
Ank2 (Ankyrin 2),DRSC22922,132,161,,,inactive
CG9143,DRSC07338,226,146,,,inactive
wam (wampa),DRSC15171,200,121,,,inactive
shd (shade),DRSC11129,71.5,189,,,inactive
spartin,DRSC12187,90.6,96.2,,,active
kek4 (kekkon 4),DRSC03220,71.3,95,,,inactive
Vm26Ac (Vitelline membrane 26Aac),DRSC02329,154,89.5,,,inactive
Ldsdh1 (Lipid droplet subset dehydrogenase 1),DRSC18219,168,136,,,inactive
CG18258,DRSC19798,94.2,127,,,inactive
Dhc64C (Dynein heavy chain 64C),DRSC08656,79.5,88.4,,,inactive
CG11417,DRSC18581,111,121,,,inactive
Mst57Dc (Male-specific transcript 57Dc),DRSC16745,165,140,,,inactive
CG14492,DRSC06463,171,124,,,inactive
l(2)34Fd (lethal (2) 34Fd),DRSC01911,94.6,76.9,,,inactive
5-HT1A (5-hydroxytryptamine (serotonin) receptor 1A),DRSC05030,101,124,,,inactive
CG3662,DRSC00626,101,246,,,inactive
CG3309,DRSC18301,147,90,,,inactive
Wdr24 (WD repeat domain 24),DRSC14151,156,157,,,inactive
Prosbeta6 (Proteasome beta6 subunit),DRSC11256,47.2,58.7,,,active
CG7739,DRSC10910,74.6,105,,,inactive
Actn (alpha actinin),DRSC17724,110,111,,,inactive
CG1440,DRSC17915,247,110,,,inactive
Yp3 (Yolk protein 3),DRSC20302,85.3,126,,,inactive
Inx7 (Innexin 7),DRSC18784,233,145,,,inactive
CG3085,DRSC04335,175,124,,,inactive
CG31793,DRSC02605,128,115,,,inactive
CG17029,DRSC10240,98.6,157,,,inactive
Chmp1 (Charged multivesicular body protein 1),DRSC10401,124,129,,,inactive
CG32806,DRSC21699,158,78.6,,,inactive
spz5 (spatzle 5),DRSC08645,50.7,152,,,active
ND-20 (NADH dehydrogenase (ubiquinone) 20 kDa subunit),DRSC20164,109,111,,,inactive
Cyp6a8 (Cytochrome P450 6a8),DRSC07384,187,131,,,inactive
CG13837,DRSC14687,191,166,,,inactive
Or46a + asRNA:CR43467,DRSC07489,99.4,110,,,inactive
Or46a + asRNA:CR43467,DRSC07490,82.3,87,,,inactive
Or46a + asRNA:CR43467,DRSC21590,115,93.6,,,inactive
fs(1)N (female sterile (1) Nasrat),DRSC18578,67.5,102,,,inactive
Tes (Testin),DRSC06996,127,143,,,inactive
"Dnai2 (dynein, axonemal, intermediate chain 2)",DRSC10575,47.4,60.7,,,active
CG15870,DRSC06588,141,148,,,inactive
Obp56c (Odorant-binding protein 56c),DRSC06552,125,151,107,75.4,inactive
Obp56c (Odorant-binding protein 56c),DRSC22325,102,184,,,inactive
